Source: the supplement of paper PMC12823440, “Inhibitors supercharge kinase turnover through native proteolytic circuits” (Nature, 2025)
Counter-ions that a name gives are not always drawn. The list shows a part of the results. The calls rarely recur for the same compound in another form.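 In K562 cells expressing nanoluciferase-fused kinases, luminescence was recorded at 4 h intervals between 2 and 18 h, normalized as percent of control with DMSO at 100% and a positive control at 0%. A significant (2 sigma) signal drop marks a time point as decreased. The authors' rule for a hit is not shown and takes in more than the number of time points.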

By UniProt entry, the sequences of proteins in these tests, tags left out. Where a name states a change or a piece, a line headed by the entry shows the natural chain unless it says otherwise.
UniProt P50750, whole entry: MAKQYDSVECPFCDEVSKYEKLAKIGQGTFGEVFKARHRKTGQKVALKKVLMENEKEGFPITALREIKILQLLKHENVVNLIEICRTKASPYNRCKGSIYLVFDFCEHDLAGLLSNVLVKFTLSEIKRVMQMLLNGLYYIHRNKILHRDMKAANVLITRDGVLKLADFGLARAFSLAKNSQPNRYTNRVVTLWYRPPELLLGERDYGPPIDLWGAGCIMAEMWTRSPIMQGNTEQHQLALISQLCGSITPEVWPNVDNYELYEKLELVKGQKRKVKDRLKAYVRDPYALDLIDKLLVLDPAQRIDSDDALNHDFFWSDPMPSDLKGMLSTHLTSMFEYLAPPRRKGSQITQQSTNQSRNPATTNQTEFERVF
UniProt O96017, whole entry: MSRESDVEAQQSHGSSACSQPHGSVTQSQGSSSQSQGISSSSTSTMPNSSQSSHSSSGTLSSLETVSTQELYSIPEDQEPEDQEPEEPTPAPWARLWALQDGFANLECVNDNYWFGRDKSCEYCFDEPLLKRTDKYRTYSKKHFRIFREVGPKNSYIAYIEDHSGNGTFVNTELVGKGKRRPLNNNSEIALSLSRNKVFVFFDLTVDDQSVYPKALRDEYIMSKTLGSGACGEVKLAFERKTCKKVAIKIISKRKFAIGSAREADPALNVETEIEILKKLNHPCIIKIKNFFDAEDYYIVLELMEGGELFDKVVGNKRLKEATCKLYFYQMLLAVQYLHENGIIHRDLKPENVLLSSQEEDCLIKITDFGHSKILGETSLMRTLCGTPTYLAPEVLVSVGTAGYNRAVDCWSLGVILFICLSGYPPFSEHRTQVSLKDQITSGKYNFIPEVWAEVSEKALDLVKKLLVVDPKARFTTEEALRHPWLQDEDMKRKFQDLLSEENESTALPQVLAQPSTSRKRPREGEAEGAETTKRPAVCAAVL
UniProt P07333, whole entry: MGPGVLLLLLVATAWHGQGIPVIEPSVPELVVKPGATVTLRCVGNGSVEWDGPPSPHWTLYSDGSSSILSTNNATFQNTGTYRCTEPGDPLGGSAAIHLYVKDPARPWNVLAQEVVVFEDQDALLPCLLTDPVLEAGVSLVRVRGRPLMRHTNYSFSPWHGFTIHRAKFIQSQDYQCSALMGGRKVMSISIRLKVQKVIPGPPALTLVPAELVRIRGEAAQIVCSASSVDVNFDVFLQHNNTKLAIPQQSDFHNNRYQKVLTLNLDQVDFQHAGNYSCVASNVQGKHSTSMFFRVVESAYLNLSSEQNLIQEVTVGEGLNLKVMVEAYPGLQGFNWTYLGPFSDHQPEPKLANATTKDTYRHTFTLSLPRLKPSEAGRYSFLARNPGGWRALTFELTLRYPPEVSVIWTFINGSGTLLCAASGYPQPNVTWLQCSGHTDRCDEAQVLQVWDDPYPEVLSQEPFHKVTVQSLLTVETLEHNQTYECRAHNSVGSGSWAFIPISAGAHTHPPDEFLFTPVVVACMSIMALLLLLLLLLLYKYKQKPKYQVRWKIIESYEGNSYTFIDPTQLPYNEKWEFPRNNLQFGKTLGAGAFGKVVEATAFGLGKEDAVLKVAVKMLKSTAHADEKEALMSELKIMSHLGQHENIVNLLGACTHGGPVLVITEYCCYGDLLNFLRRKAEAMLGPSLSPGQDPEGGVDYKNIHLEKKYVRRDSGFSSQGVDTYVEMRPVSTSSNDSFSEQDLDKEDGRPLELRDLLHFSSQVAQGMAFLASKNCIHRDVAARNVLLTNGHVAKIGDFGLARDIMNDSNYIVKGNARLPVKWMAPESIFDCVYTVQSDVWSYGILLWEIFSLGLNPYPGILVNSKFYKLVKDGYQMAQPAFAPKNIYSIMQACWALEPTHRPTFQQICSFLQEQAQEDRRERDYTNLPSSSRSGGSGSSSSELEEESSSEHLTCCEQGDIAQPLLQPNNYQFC
UniProt P41240: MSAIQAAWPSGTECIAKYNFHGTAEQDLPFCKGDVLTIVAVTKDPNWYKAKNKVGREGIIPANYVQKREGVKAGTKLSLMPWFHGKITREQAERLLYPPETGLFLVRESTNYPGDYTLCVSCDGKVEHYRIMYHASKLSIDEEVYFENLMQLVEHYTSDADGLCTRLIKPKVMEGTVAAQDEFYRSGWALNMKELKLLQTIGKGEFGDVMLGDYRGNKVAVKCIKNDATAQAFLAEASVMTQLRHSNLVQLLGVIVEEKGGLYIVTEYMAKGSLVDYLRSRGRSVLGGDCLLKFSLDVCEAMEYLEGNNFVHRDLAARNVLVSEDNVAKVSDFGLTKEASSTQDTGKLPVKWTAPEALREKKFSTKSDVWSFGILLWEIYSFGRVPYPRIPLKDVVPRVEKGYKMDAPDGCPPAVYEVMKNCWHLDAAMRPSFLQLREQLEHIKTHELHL
UniProt P48729: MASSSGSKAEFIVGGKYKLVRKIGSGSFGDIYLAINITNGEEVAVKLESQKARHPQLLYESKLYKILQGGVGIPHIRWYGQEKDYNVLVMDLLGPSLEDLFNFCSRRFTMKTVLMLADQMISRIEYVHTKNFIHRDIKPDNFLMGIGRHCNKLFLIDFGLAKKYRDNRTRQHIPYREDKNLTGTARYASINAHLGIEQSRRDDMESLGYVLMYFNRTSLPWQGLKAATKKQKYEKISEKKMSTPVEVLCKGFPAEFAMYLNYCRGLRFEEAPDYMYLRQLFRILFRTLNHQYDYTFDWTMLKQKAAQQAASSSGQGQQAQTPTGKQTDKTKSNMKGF
UniProt P48730: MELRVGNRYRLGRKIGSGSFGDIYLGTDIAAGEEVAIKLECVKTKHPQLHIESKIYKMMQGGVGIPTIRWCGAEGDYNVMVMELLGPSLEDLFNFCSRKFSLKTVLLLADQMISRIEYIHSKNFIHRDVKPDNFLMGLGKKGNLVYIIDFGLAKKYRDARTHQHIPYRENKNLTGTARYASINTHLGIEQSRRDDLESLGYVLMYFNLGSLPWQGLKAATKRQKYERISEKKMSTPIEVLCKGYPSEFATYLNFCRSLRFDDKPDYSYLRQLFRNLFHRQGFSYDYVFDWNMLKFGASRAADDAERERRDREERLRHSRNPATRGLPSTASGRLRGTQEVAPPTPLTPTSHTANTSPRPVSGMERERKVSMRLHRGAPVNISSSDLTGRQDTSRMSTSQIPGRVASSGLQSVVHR
UniProt Q08345: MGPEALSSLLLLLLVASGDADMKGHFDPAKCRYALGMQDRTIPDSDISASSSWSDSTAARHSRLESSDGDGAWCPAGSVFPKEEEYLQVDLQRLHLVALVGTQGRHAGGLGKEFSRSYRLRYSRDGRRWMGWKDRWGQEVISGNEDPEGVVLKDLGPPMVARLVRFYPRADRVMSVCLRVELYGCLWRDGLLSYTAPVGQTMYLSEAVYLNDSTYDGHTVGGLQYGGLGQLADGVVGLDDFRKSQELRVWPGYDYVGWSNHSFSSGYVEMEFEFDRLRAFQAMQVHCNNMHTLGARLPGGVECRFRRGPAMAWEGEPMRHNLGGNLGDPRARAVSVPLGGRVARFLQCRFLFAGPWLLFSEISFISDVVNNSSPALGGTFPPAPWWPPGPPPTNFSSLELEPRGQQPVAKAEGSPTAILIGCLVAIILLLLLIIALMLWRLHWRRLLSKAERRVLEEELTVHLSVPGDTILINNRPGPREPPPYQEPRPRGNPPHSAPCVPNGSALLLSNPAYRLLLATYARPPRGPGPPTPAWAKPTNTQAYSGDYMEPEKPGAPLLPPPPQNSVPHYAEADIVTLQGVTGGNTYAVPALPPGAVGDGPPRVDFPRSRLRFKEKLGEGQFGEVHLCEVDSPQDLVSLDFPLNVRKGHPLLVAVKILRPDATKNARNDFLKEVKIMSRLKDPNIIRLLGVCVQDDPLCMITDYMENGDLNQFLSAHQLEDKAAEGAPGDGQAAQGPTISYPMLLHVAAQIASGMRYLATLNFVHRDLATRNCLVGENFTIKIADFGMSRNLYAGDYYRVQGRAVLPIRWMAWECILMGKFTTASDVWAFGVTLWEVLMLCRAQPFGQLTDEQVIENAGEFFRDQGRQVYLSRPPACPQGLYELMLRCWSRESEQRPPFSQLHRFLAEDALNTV
UniProt Q9Y463, whole entry, looked up: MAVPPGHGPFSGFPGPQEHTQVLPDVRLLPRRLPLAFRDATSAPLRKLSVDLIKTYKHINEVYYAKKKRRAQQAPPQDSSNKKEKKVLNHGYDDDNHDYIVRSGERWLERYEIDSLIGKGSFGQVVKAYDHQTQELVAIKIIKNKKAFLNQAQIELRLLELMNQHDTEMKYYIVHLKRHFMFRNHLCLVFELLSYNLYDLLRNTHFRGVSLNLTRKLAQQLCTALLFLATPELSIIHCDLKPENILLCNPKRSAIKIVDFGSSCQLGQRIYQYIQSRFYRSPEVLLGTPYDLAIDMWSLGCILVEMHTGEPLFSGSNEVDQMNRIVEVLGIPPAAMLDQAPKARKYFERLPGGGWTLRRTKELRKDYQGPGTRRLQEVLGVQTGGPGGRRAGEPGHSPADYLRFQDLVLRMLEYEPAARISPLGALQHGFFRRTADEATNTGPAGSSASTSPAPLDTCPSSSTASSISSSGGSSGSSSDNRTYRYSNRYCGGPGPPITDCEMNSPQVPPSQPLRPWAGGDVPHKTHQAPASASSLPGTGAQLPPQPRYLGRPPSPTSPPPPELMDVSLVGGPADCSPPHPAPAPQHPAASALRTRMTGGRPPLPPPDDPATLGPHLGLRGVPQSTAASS
UniProt Q92630: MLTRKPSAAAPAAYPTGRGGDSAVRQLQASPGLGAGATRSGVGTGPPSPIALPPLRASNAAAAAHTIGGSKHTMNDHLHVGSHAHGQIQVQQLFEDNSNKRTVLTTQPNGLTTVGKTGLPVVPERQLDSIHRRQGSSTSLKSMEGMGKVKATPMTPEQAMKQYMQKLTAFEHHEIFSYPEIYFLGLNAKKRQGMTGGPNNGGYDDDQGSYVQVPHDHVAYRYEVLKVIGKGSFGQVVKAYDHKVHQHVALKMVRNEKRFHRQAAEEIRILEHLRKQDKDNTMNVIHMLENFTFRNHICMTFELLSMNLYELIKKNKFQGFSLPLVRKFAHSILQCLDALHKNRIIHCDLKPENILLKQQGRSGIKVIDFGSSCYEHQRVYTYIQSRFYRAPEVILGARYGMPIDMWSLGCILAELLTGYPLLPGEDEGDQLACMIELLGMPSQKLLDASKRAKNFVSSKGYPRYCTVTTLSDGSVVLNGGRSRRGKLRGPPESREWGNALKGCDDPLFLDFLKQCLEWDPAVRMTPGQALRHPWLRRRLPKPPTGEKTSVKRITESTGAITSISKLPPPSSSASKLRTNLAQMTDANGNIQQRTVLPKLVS
UniProt P21860, whole entry: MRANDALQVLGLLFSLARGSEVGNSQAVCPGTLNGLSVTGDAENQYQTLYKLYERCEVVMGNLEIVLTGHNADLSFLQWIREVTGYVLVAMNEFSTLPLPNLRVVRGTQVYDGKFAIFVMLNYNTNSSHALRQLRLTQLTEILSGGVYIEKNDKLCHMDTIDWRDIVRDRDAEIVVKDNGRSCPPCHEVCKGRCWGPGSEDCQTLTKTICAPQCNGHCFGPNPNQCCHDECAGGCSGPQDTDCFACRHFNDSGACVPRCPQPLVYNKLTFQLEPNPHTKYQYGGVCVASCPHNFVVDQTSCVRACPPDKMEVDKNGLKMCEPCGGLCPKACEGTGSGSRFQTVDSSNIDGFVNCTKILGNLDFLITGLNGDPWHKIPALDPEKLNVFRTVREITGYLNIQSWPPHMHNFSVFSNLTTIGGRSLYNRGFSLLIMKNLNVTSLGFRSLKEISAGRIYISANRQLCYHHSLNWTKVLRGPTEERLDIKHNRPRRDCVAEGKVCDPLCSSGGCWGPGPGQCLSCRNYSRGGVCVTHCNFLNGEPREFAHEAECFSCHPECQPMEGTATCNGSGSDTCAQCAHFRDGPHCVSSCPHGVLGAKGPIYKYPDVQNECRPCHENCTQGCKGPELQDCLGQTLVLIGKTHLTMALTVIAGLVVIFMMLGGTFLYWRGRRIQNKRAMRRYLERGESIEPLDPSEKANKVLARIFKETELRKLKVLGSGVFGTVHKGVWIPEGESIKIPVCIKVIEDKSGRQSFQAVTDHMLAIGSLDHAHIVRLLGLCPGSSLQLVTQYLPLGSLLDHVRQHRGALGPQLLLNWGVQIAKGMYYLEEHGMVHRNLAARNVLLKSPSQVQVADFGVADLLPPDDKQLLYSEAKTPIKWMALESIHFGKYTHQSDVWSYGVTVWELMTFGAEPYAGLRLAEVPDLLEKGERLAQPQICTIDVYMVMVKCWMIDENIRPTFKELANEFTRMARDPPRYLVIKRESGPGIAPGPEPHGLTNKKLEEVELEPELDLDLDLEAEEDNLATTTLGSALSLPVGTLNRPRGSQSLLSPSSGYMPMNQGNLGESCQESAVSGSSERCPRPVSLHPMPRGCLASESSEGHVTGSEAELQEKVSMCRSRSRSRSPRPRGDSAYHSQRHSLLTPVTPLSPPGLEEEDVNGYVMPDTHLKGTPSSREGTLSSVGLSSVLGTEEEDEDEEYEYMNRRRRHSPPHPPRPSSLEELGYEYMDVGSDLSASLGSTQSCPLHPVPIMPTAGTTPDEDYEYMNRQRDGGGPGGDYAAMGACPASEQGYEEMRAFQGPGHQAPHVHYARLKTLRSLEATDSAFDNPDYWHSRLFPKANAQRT

Experiments:
Test in all cases: kinase-Nluc reporter destabilization hit call (1 = scored as downregulated) (binary); higher = compound decreases kinase abundance
Details in all cases: K562; 2-18 h
[1] = biological target: CDK7 (UniProt P50613)
[2] = biological target: CDK9 (UniProt P50750)
[3] = biological target: CHEK2 (UniProt O96017)
[4] = biological target: CSF1R (UniProt P07333)
[5] = biological target: CSK (UniProt P41240)
[6] = biological target: CSNK1A1 (UniProt P48729)
[7] = biological target: CSNK1D (UniProt P48730)
[8] = biological target: DDR1 (UniProt Q08345)
[9] = biological target: DYRK1B (UniProt Q9Y463)
[10] = biological target: DYRK2 (UniProt Q92630)
[11] = biological target: EGFR (UniProt P00533)
[12] = biological target: EGFR_G719S (UniProt P00533)
[13] = biological target: EGFR_G719S_T790M (UniProt P00533)
[14] = biological target: EGFR_L718V (UniProt P00533)
[15] = biological target: EGFR_L858R (UniProt P00533)
[16] = biological target: EGFR_L861Q (UniProt P00533)
[17] = biological target: EGFR_T790M (UniProt P00533)
[18] = biological target: EPHA2 (UniProt P29317)
[19] = biological target: ERBB3 (UniProt P21860)
[20] = biological target: ERBB4_R711C (clone: ERBB4_mut) (UniProt Q15303)

Measured: kinase-Nluc reporter destabilization hit call

Nc1nccc(Oc2ccc(NC(=O)c3cn(COP(=O)(O)O)cc(-c4ccc(F)cc4)c3=O)cc2F)c1Cl (10 µM)
inactive: [1] 0 | [2] 0 | [3] 0 | [4] 0 | [5] 0 | [6] 0 | [7] 0 | [8] 0 | [9] 0 | [10] 0 | [11] 0 | [12] 0 | [13] 0 | [14] 0 | [15] 0 | [16] 0 | [17] 0 | [18] 0 | [19] 0 | [20] 0

CCn1c(=O)c(-c2ccc(-c3cncc(C)n3)cc2Cl)cc2cnc(NCCC3CCN(C)CC3)nc21 (10 µM)
inactive: [1] 0 | [2] 0 | [3] 0 | [4] 0 | [5] 0 | [6] 0 | [7] 0 | [8] 0 | [9] 0 | [10] 0 | [11] 0 | [12] 0 | [13] 0 | [14] 0 | [15] 0 | [16] 0 | [17] 0 | [18] 0 | [19] 0 | [20] 0

c1cc2c(cc1O[C@H]1OC[C@H]3[C@@H]1CO[C@@H]3c1ccc3c(c1)OCO3)OCO2 [Sesamolin] (10 µM)
inactive: [1] 0 | [2] 0 | [3] 0 | [4] 0 | [5] 0 | [6] 0 | [7] 0 | [8] 0 | [9] 0 | [10] 0 | [11] 0 | [12] 0 | [13] 0 | [14] 0 | [15] 0 | [16] 0 | [17] 0 | [18] 0 | [19] 0 | [20] 0

Cn1cnc(-c2cc3nccc(Oc4ccc(NC(=S)NC(=O)Cc5ccccc5)cc4F)c3s2)c1 [MGCD-265 analog] (10 µM)
inactive: [1] 0 | [2] 0 | [3] 0 | [4] 0 | [5] 0 | [6] 0 | [7] 0 | [8] 0 | [9] 0 | [10] 0 | [11] 0 | [12] 0 | [13] 0 | [14] 0 | [15] 0 | [16] 0 | [17] 0 | [18] 0 | [19] 0 | [20] 0

CN(CC(=O)N(Cc1ccc(C2CCCCC2)cc1)c1ccc(C(=O)O)cc1)S(=O)(=O)c1c(F)c(F)c(F)c(F)c1F (2.5 µM)
inactive: [1] 0 | [2] 0 | [3] 0 | [4] 0 | [5] 0 | [6] 0 | [7] 0 | [8] 0 | [9] 0 | [10] 0 | [11] 0 | [12] 0 | [13] 0 | [14] 0 | [15] 0 | [16] 0 | [17] 0 | [18] 0 | [19] 0 | [20] 0

Random excerpt: 2 records from the list, in no set order.
Cn1cnc(-c2cc3nccc(Oc4ccc(NC(=S)NC(=O)Cc5ccccc5)cc4F)c3s2)c1 [MGCD-265 analog] (10 µM)
inactive: [1] 0 | [2] 0 | [3] 0 | [4] 0 | [5] 0 | [6] 0 | [7] 0 | [8] 0 | [9] 0 | [10] 0 | [11] 0 | [12] 0 | [13] 0 | [14] 0 | [15] 0 | [16] 0 | [17] 0 | [18] 0 | [19] 0 | [20] 0

c1cc2c(cc1O[C@H]1OC[C@H]3[C@@H]1CO[C@@H]3c1ccc3c(c1)OCO3)OCO2 [Sesamolin] (10 µM)
inactive: [1] 0 | [2] 0 | [3] 0 | [4] 0 | [5] 0 | [6] 0 | [7] 0 | [8] 0 | [9] 0 | [10] 0 | [11] 0 | [12] 0 | [13] 0 | [14] 0 | [15] 0 | [16] 0 | [17] 0 | [18] 0 | [19] 0 | [20] 0

More results.

N#Cc1c(-c2ccccc2)cc(-c2cc(Br)ccc2O)[nH]c1=O (10 µM)
inactive: [1] 0 | [2] 0 | [3] 0 | [4] 0 | [5] 0 | [6] 0 | [7] 0 | [8] 0 | [9] 0 | [10] 0 | [11] 0 | [12] 0 | [13] 0 | [14] 0 | [15] 0 | [16] 0 | [17] 0 | [18] 0 | [19] 0 | [20] 0

CCc1cc(O)c(F)cc1-c1ccc2c(-c3nc4c([nH]3)CN(C3CCN(C)CC3)CC4)n[nH]c2c1 [JAK-IN-5 (hydrochloride)] (2 µM)
inactive: [1] 0 | [2] 0 | [3] 0 | [4] 0 | [5] 0 | [6] 0 | [7] 0 | [8] 0 | [9] 0 | [10] 0 | [11] 0 | [12] 0 | [13] 0 | [14] 0 | [15] 0 | [16] 0 | [17] 0 | [18] 0 | [19] 0 | [20] 0

Cc1ccc(-c2c(C(=O)CCl)n(CCCO)c3ncnc(N)c23)cc1 (10 µM)
active: [4] 1
inactive: [1] 0 | [2] 0 | [3] 0 | [5] 0 | [6] 0 | [7] 0 | [8] 0 | [9] 0 | [10] 0 | [11] 0 | [12] 0 | [13] 0 | [14] 0 | [15] 0 | [16] 0 | [17] 0 | [18] 0 | [19] 0 | [20] 0

CNCc1ccccc1-c1csc([C@@H](C)Nc2nc(C)nc3cc(OC)c(OC)cc23)c1 (2.5 µM)
inactive: [1] 0 | [2] 0 | [3] 0 | [4] 0 | [5] 0 | [6] 0 | [7] 0 | [8] 0 | [9] 0 | [10] 0 | [11] 0 | [12] 0 | [13] 0 | [14] 0 | [15] 0 | [16] 0 | [17] 0 | [18] 0 | [19] 0 | [20] 0

Cc1cc(Nc2cc3ncccc3c(N[C@@H]3C[C@H]4CC[C@@H](C3)N4CCC#N)n2)n[nH]1 [Izencitinib] (10 µM)
inactive: [1] 0 | [2] 0 | [3] 0 | [4] 0 | [5] 0 | [6] 0 | [7] 0 | [8] 0 | [9] 0 | [10] 0 | [11] 0 | [12] 0 | [13] 0 | [14] 0 | [15] 0 | [16] 0 | [17] 0 | [18] 0 | [19] 0 | [20] 0

O=C(/C=C/c1ccc(O)c(O)c1)c1ccc(O[C@@H]2O[C@H](CO)[C@@H](O)[C@H](O)[C@H]2O)c(O)c1O [Marein] (10 µM)
inactive: [1] 0 | [2] 0 | [3] 0 | [4] 0 | [5] 0 | [6] 0 | [7] 0 | [8] 0 | [9] 0 | [10] 0 | [11] 0 | [12] 0 | [13] 0 | [14] 0 | [15] 0 | [16] 0 | [17] 0 | [18] 0 | [19] 0 | [20] 0

C[C@]1(O)CCC[C@@H]1n1c(=O)c(C(F)F)cc2cnc(NC3CCN(S(C)(=O)=O)CC3)nc21 (10 µM)
inactive: [1] 0 | [2] 0 | [3] 0 | [4] 0 | [5] 0 | [6] 0 | [7] 0 | [8] 0 | [9] 0 | [10] 0 | [11] 0 | [12] 0 | [13] 0 | [14] 0 | [15] 0 | [16] 0 | [17] 0 | [18] 0 | [19] 0 | [20] 0

COc1c(NC(=O)C(=O)c2ccc(OCCN3CCOCC3)c3ccccc23)cc(C(C)(C)C)cc1NS(C)(=O)=O (2.5 µM)
inactive: [1] 0 | [2] 0 | [3] 0 | [4] 0 | [5] 0 | [6] 0 | [7] 0 | [8] 0 | [9] 0 | [10] 0 | [11] 0 | [12] 0 | [13] 0 | [14] 0 | [15] 0 | [16] 0 | [17] 0 | [18] 0 | [19] 0 | [20] 0

O=C(NC(NC(=S)Nc1ccc(F)c([N+](=O)[O-])c1)C(Cl)(Cl)Cl)C(c1ccccc1)c1ccccc1 (stereo not given) (10 µM)
inactive: [1] 0 | [2] 0 | [3] 0 | [4] 0 | [5] 0 | [6] 0 | [7] 0 | [8] 0 | [9] 0 | [10] 0 | [11] 0 | [12] 0 | [13] 0 | [14] 0 | [15] 0 | [16] 0 | [17] 0 | [18] 0 | [19] 0 | [20] 0

CNc1nc(Nc2cnn(C3CCN(C4COC4)CC3F)c2Cl)ncc1C(F)(F)F (stereo not given) (10 µM)
inactive: [1] 0 | [2] 0 | [3] 0 | [4] 0 | [5] 0 | [6] 0 | [7] 0 | [8] 0 | [9] 0 | [10] 0 | [11] 0 | [12] 0 | [13] 0 | [14] 0 | [15] 0 | [16] 0 | [17] 0 | [18] 0 | [19] 0 | [20] 0

N#Cc1cccc(-c2c[nH]c3ncnc(N4CCOCC4)c23)c1 (10 µM)
inactive: [1] 0 | [2] 0 | [3] 0 | [4] 0 | [5] 0 | [6] 0 | [7] 0 | [8] 0 | [9] 0 | [10] 0 | [11] 0 | [12] 0 | [13] 0 | [14] 0 | [15] 0 | [16] 0 | [17] 0 | [18] 0 | [19] 0 | [20] 0

CC(C)c1cnc(-c2cc(Cl)ccc2F)cc1Nc1ccncc1C(=O)NC(CO)CO (2.5 µM)
inactive: [1] 0 | [2] 0 | [3] 0 | [4] 0 | [5] 0 | [6] 0 | [7] 0 | [8] 0 | [9] 0 | [10] 0 | [11] 0 | [12] 0 | [13] 0 | [14] 0 | [15] 0 | [16] 0 | [17] 0 | [18] 0 | [19] 0 | [20] 0

C[C@@H]1C(=O)O[C@H](C)[C@H]1C[C@@H](O)[C@](C)(O)[C@H]1CC[C@@]2(O)C3=CC(=O)[C@@H]4C[C@@H](O)[C@@H](O)C[C@]4(C)[C@H]3CC[C@]12C [Cyasterone] (10 µM)
inactive: [1] 0 | [2] 0 | [3] 0 | [4] 0 | [5] 0 | [6] 0 | [7] 0 | [8] 0 | [9] 0 | [10] 0 | [11] 0 | [12] 0 | [13] 0 | [14] 0 | [15] 0 | [16] 0 | [17] 0 | [18] 0 | [19] 0 | [20] 0
